According to PubChem BioAssay AID1794844 (National Center for Advancing Translational Sciences (NCATS), 2023):
Screen size: about 2,800 compounds; fewer than 10 were called active. Roughly 7% stayed inconclusive and do not appear here. Calls follow the shape of the dose curve; as a rule, active = well fitted inhibition curve with a large enough effect; inconclusive = small, poorly fitted or top-dose-only effect; inactive = no such curve, though single readings can be large or run the other way. This is one part of the list.

Chains of the proteins cited; added tags and fusions are not shown. Lines headed by an entry give the natural chain unless they say otherwise; changes in a name come on top.
UniProt C7C422: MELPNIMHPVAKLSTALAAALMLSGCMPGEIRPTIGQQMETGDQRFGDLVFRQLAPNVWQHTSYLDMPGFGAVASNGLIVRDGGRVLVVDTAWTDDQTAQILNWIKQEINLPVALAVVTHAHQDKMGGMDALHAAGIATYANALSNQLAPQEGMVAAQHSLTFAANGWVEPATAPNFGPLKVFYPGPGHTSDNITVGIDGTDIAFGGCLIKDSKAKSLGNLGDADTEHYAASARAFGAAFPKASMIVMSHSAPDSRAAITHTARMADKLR

molecular target: Metallo-beta-lactamase type 2 (Klebsiella pneumoniae) (UniProt C7C422); assay: qHTS to identify inhibitors of the New Delhi Metallo-beta-lactamase (NDM): Nitrocefin screen against the machine-based learning selections.; also: % of control where 0% means no effect; settings: NDM-1 enzyme, nitrocefin hydrolysis, absorbance 485 nm; activity, negative = inhibition: at the top concentration
Summary of the method: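 NDM-1 (2 nM final) in 50 mM HEPES pH 7.0, 1 uM Zn2SO4, 0.01% Tween20 was preincubated with compounds for >30 min. Nitrocefin (16.7 uM final) was read at 485 nm after 15 min, and meropenem (50 uM final) at 300 nm after 30 min.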

activity, negative = inhibition, inactive:
CC1=C[C@@H](CN2CCN(c3cnccn3)CC2)[C@H](C(C)C)C[C@H]1Cc1nnc(-c2cccnc2)o1 -10.1%
CCOc1ccc(C(=O)NC2CCCN(c3cc(-c4ccc(OC)cc4)[nH]n3)C2)cc1OCC (stereo unspecified) 4.43%
N#Cc1cccc(CN2CCOC[C@H]2c2ncc(-c3ccc(C(F)(F)F)cc3)[nH]2)c1 3.87% [at 57.5 µM]
Cn1ccnc1CN[C@@H]1CO[C@H](CNC(=O)CC(C)(C)C)[C@H]1O -8.81% [at 57.5 µM]
COCCOC1CN(C2CCN(C(=O)c3ccc(OC)cc3)CC2)C12CCCCC2 (stereo unspecified) 4.3%
CN(c1ccccc1)c1ccc2nnc(-c3cc(C(=O)NC4CCC(O)CC4)ccn3)n2n1 (stereo unspecified) 0.149%
COc1ccccc1C(=O)Nc1ccc([C@H]2OCC(=O)N(Cc3cccnc3)[C@@H]2CO)cc1 7.94%
CCOCC(=O)N1CCCC(c2cc(N3CCOCC3)nc(C)n2)C1 (stereo unspecified) 8.6%
O=C(Cc1c[nH]c2ncc(-c3cccc(Cl)c3)cc12)NCc1cccnc1 7.39% [at 57.5 µM]
C[C@]1(O)CCN(C(=O)CCc2c[nH]c3ccccc23)C[C@@H]1O -14.7%
CC(=O)N1CCCC(C(=O)NCCc2csc(-c3ccncc3)n2)C1 (stereo unspecified) 3.06%
CN(Cc1cccc(C(F)(F)F)c1)Cc1nc(-c2ccccc2)no1 -5.09%
O=C(c1cccc(Cl)c1)N1C[C@@H](CO)[C@H](c2ccccn2)C1 -7.17%
CN1CCC(N2CC[C@H](c3nnc(-c4ccc(N(C)C)cc4)o3)C2)CC1 8.7% [at 57.5 µM]
COCCOc1ccnc(-c2noc([C@@H]3CCCN3Cc3cccnc3)n2)c1 -3.49% [at 57.5 µM]
COCCN1C(=O)CCc2cc(NC(=O)c3ccc(C)c(C)c3)ccc21 0.927%
Nc1nc(C2CC(O)C2)cc(N2CCC(OCc3ccccn3)CC2)n1 (stereo unspecified) 1.81%
COc1cccc([C@@H]2CCN(Cc3cn[nH]c3C(=O)O)C[C@H]2O)c1 -18%
C#CCN(C)C(=O)c1c(-c2ccc(OC)cc2)noc1[C@H](C)O -3.79% [at 57.5 µM]
O=C(O)[C@]12CCCN[C@@H]1CCN(Cc1cnc(-c3ccccn3)nc1)C2 3.6%
CCc1noc(-c2cccn3c(CNC(=O)Cc4c[nH]c5ccccc45)nnc23)n1 2.08%
C[C@@]12CO[C@@H](Cc3ccccc3)O[C@@H]1CC[C@]1(C)C2CC[C@@H](O)[C@H]1CC(=O)NCc1cc(F)cc(F)c1 (stereo partly specified) 7.38%
O=C1Cc2c(-c3ccc4ccccc4c3)n[nH]c2CN1Cc1ccccn1 0.0105% [at 57.5 µM]
COCCNC(=O)C[C@@H]1C[C@H]2O[C@H](CNCc3cnccc3C(F)(F)F)[C@@H](O)[C@H]2O1 -19.7% [at 57.5 µM]
Cn1nc(CC2CCN(C(=O)c3cnon3)CC2)n(-c2ccccc2)c1=O -0.577%
O=C(c1ccc2ncccc2c1)N1CCC2(CC1)Nc1ccccc1NC2=O -0.464%
CC(C)CN(Cc1cccnc1)C1CN(C(=O)CC2CCCCC2)C1 -3%
C[C@@H](NC(=O)c1cccn1C)c1onc(-c2ccc(F)cc2)c1C(=O)O 5.27% [at 57.5 µM]
Cc1oc(C(O)c2ccccc2F)nc1C(=O)Nc1ccc(C(N)=O)cc1 (stereo unspecified) -2.51% [at 57.5 µM]
Cc1cc(C)c(CNC(=O)c2nc(-c3ccc(CN(C)C)cc3)cc3[nH]ccc23)c(=O)[nH]1 1.93% [at 57.5 µM]
C#CCN(C)Cc1nc(C2(O)CCN(C(=O)NCC=C)CC2)cs1 -0.833% [at 57.5 µM]
CN1CCC(N2CCC(O)(c3csc(CN4CCc5ccccc5C4)n3)CC2)CC1 3.45% [at 57.5 µM]
CC(C)CS(=O)(=O)N[C@H](C)c1onc(-c2ccc(Cl)cc2)c1C(=O)O -7.76% [at 57.5 µM]
O=C(Cc1c[nH]c2ncc(-c3cccnc3)cc12)Nc1ccc(F)cc1 2.56% [at 57.5 µM]
Nc1n[nH]c(CNc2cc(-c3ccc(F)cc3)nc3ccnn23)n1 8.01%
Fc1ccc2cnc(N3CCC(N[C@H]4C[C@@H]5OCC[C@H]45)CC3)nc2c1 -0.685%
O=C(c1cc2sccc2[nH]1)N1CCCn2nc(C(O)CO)cc2C1 (stereo unspecified) 1.02%
CCOCCN1C(=O)COC[C@@H]1[C@H](O)c1ccc(NC(=O)c2ccccc2)cc1 5.48% [at 57.5 µM]
C[C@@H]1C(=O)O[C@H]2[C@H]1CC[C@@]1(C)Cc3sc(NS(=O)(=O)c4ccc5c(c4)CN(C(=O)C(F)(F)F)CC5)nc3[C@@H](C)[C@H]21 -3.33%
O=C(O)C[C@@H]1CCN(C(=O)C2CCC2)C[C@@H]1CCN1CCC(n2c(=O)[nH]c3ccccc32)CC1 -3.28%
COC(=O)N1CCn2c(nnc2-c2ccc(OC)cc2)C1 -3.94% [at 57.5 µM]
O=C(CCc1cc(=O)[nH]o1)N[C@H](c1ccccn1)C1CC(O)C1 (stereo partly specified) 0.879%
CN1[C@@H](CCC(=O)NCc2cccnc2)CNC(=O)[C@@H]2[C@H]1CCN2Cc1nc2ccccc2n1C -4.66%
O=C(c1cnc2c(O)cccn2c1=O)N1CCC2(CC1)OCCCC2O (stereo unspecified) -16.4%
CC[C@H]1CN(C(=O)c2ccc(F)cc2)CC[C@H]1CC(=O)NC1CCCC1 -2.8% [at 57.5 µM]
Cc1nc2c(NC3CCN(C(=O)c4cnccn4)CC3)cccn2n1 -9.57%
O=C(Cc1c[nH]c2ncc(-c3ccccc3)cc12)NCC1CCOCC1 -1.26% [at 57.5 µM]
CC(=O)N1CC[C@H](c2nc3cc(C)ccc3o2)C1 -5.97% [at 76.7 µM]
O=C(O)c1cc(-c2ccncc2)cc(S(=O)(=O)N2CCCCCC2)c1 3.61%
CN(C)C1CCN(c2nc(-c3ccncc3)nc3c2CNC3)C1 (stereo unspecified) -18.4%
COc1cc(=O)n2c(c1C(=O)NC1CCCCCC1)CCCC2 0.186%
Cc1sc2ccn(C)c(=O)c2c1C(=O)NCc1ccc(OC(C)C)cc1 4.04%
COc1ccc(-c2ccc3c(c2)C(=O)N2CC[C@H](NC(=O)c4cccs4)[C@H]2C(=O)N3)c(OC)c1 -4.39%
O=C1Cc2c(-c3ccc4ccccc4c3)n[nH]c2CN1CCc1ccncc1 -4.45% [at 57.5 µM]
COc1ncccc1CNC[C@H]1O[C@@H]2C[C@@H](CC(=O)N3CCOCC3)O[C@@H]2[C@@H]1O -3.32% [at 57.5 µM]
c1ccc(Nc2cc3c(cn2)CN(Cc2cnc[nH]2)CCN3)cc1 4.9% [at 57.5 µM]
COC1CCN(CC2CCCCCN2C(=O)CCCc2ccccc2)CC1 (stereo unspecified) -6.93%
Cc1cc(C(=O)N2C[C@@H](COc3ccccc3)[C@H](C(N)=O)C2)no1 -6.66%
COc1ccc2c(c1)nc1n2[C@@H](CNC(=O)c2ccncc2)COC1 0.0321% [at 57.5 µM]
CC(C)(O)CCc1ccc(C(=O)N2CCC(c3cccc(O)c3)CC2)cc1 -3.43%
CC(=O)N1CCC(NC[C@H]2COCc3nc4cc(C)ccc4n32)CC1 0.791% [at 57.5 µM]

3 compounds drawn at random from the list so far, as already listed:
activity, negative = inhibition, inactive:
CCOCCN1C(=O)COC[C@@H]1[C@H](O)c1ccc(NC(=O)c2ccccc2)cc1 5.48% [at 57.5 µM]
CC(=O)N1CCC(NC[C@H]2COCc3nc4cc(C)ccc4n32)CC1 0.791% [at 57.5 µM]
O=C(c1cc2sccc2[nH]1)N1CCCn2nc(C(O)CO)cc2C1 (stereo unspecified) 1.02%
